Assay results reported in article PMC6123687.
These are yes or no findings as the source states them, for the method shown. Binding can be weak; no strength is given. For part of these data: Tags and fused reporters may be left off the sequences shown. For part of these data: Binding seen in cells or lysates may run through a third protein. Each block holds one substance with its values, some of them ahead of it.

Protein sequences, listed by entry. Tags and fused reporters are not part of them. Lines headed by an entry give the natural chain unless they say otherwise; changes in a name come on top.
UniProt A0A346XLJ4: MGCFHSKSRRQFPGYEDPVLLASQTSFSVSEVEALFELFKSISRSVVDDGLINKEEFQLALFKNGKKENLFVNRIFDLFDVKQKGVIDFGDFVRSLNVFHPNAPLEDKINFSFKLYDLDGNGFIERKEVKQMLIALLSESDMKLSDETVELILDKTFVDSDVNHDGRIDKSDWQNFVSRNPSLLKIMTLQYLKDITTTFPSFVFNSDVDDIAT

What was measured:
[1] = target: T1, GST-CIPK1 (GST-AtCIPK1) fusion protein (Arabidopsis) (UniProt Q8RWC9); assay: pull-down; GST or GST-CIPK1 on glutathione-Sepharose 4B beads, SjCBL1:HA as prey; 4°C, 1 h; 50 mM Tris-HCl pH 7.4, 100 mM NaCl, 0.05% Tween 20, 1 mM PMSF, with either 1 mM CaCl2 or 2 mM EGTA; anti-HA immunoblot; both purified
T1 sequence: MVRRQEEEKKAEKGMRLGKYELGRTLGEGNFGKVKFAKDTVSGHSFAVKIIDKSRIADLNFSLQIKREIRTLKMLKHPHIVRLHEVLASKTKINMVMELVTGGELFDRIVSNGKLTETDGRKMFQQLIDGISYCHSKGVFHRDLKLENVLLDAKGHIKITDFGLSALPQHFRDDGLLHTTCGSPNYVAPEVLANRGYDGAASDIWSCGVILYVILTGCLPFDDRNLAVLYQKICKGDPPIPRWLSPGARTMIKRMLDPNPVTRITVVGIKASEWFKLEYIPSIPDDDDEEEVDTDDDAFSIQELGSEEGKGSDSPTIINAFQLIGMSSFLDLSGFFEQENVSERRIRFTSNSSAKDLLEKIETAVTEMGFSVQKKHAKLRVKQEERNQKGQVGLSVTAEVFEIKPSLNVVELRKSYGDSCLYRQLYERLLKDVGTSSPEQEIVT

[2] = target: T2, SCFP3A^C155-CIPK1 (pMAS-SCYCE(R)⋅CIPK1) (Arabidopsis) (UniProt Q8RWC9); assay: split reporter; multicolor BiFC (VENUS N173 + SCFP3A C155) in tobacco (Nicotiana benthamiana) leaf epidermal cells, Agrobacterium infiltration, confocal microscopy
T2 sequence: T1 sequence

[3] = target: T3, CIPK1-YFP^N (pUC-SPYNE⋅CIPK1) (Arabidopsis) (UniProt Q8RWC9); assay: split reporter; BiFC (split YFP) in onion epidermal cells, particle bombardment, 18 h at 23°C, confocal microscopy
T3 sequence: T1 sequence

- binding [1]: binds
Substance: SjCBL1 tagged with a hemagglutinin epitope (SjCBL1:HA), GST removed by thrombin (from UniProt A0A346XLJ4)

- binding [2]: binds
Substance: SjCBL1-VENUS^N173 (pVYNE⋅SjCBL1) (Sedirea japonica)

- binding [3]: binds
Substance: SjCBL1-YFP^C (pUC-SPYCE⋅SjCBL1) (Sedirea japonica)
